This experiment can be described thus: IkB Signaling. Particulars: ABC-DLBCL IkBa-CBG/CBR dual luciferase ratio (green luciferase fused to IkBa over red control in OCI-Ly3 lymphoma cells), 4 h. Summed up: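 Luminescence ratio of IκBα-fused green versus native red beetle luciferase in OCI-Ly3 cells, 4 h post-doxycycline with compound; red signal alone, scaled from basal (0%) to zero light (-100%), flagged nonspecific or cytotoxic effects.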
Where [1] appears, read: measured here: control luc red channel unless noted.

Some of the results follow. These are further read-outs of the screen, such as a control signal, another cell line or another target. No call is given for them. The list favours compounds with an active or inconclusive main result. The note in brackets gives the kind of curve behind each potency; many fits are weak.

Data on 17 compounds can be found in PubChem BioAssay AID445 (National Center for Advancing Translational Sciences (NCATS), 2006).

Regarding `Cc1ccc(NC(=O)c2cc(S(=O)(=O)N3CCOCC3)c(Cl)cc2Cl)cc1`, the AC50 under setting [1] is 15.8 µM [falling, partial curve].
On to `CCC(Oc1ccccc1)C(=O)Nc1nnc(S(=O)(=O)Nc2ccccc2)s1` (stereo not drawn), for which, under setting [1], the AC50 is 3.98 µM [rising, partial curve].
Same read-out and setting: under `CCc1ccc(CNC(=O)c2ccc(CSc3nc4ccncc4n3Cc3ccccc3)cc2)cc1` stands 12.6 µM [falling, partial curve].
With `O=C(NCC1c2ccccc2CCN1C(=O)CN1CCOCC1)C1CCCCC1` (stereo not drawn), the AC50 under setting [1] was 3.98 µM [rising, single point].
Still for that read-out and setting: under `CC(=O)c1ccc(N2CCN(C(=O)C3CCN(S(=O)(=O)c4cccc5nonc45)CC3)CC2)cc1` stands 20 µM [falling, partial curve]; under `O=c1c2c3c(sc2nnn1Cc1ccc(Br)cc1)CCCC3`, 25.1 µM [falling, partial curve].
Same read-out and setting: under `O=S(=O)(NCCc1csc(-c2ccc(F)cc2)n1)c1ccc(Cl)cc1` stands 25.1 µM [falling, single point]; under `CCOC(=O)c1ccc(NC(=O)CCc2c(C)nc3c(c(C)nn3C)c2C)cc1`, 15.8 µM [falling, partial curve].
On the same count and under the same terms, under `CCOc1ccccc1NC(=O)Cn1c(=O)ccc2cc(S(=O)(=O)N3CCC(C)CC3)ccc21` stands 2 µM [rising, full curve, poor fit].
With `COc1ccc(-c2cnc(C)o2)cc1S(=O)(=O)Nc1ccc(C)c(F)c1`, the half-maximal activity concentration (AC50) under setting [1] was 2.51 µM [rising, full curve, poor fit].
On the same count and under the same terms, the same measure for `Cc1ccc(CN2CCSc3ccc(C(=O)N4CCN(c5cccc(C)c5C)CC4)cc32)cc1`: 15.8 µM [falling, partial curve]; for `O=C(CSc1nccn1Cc1ccc(Cl)cc1)NC1CCCC1`: 0.251 µM [falling, full curve, poor fit].
Regarding `CCOC(=O)c1ccc(NC(=O)CC2C(=O)N(c3ccccc3)C(=O)N2Cc2cccs2)cc1` (stereo not drawn), the AC50 under setting [1] was 20 µM [falling, partial curve].
With `Cc1ccc(S(=O)(=O)c2[nH]c(-c3ccccc3)nc2SCC(=O)O)cc1`, the half-maximal activity concentration (AC50) under setting [1] is 31.6 µM [falling, single point].
Take `COc1ccc(N2CCN(CC(O)COc3ccc(C(C)(C)C)cc3)CC2)cc1` (stereo not drawn): the AC50 under setting [1] was 20 µM [falling, partial curve, poor fit].
For the compound `O=C1OC(Nc2ccc3c(c2)OCO3)c2ccccc21` (stereo not drawn), the AC50 was 31.6 µM [rising, partial curve] (measured here: IkB-luc green channel) and 25.1 µM [falling, partial curve] (measured here: control luc red channel).
As to `CCCNc1nc2c(c(=O)n(C)c(=O)n2C)n1Cc1cccc(C)c1`, under setting [1], the half-maximal activity concentration (AC50) was 25.1 µM [falling, single point].
